{"source": "paper PMC7819943", "about": "“Rice protein-binding microarrays: a tool to detect cis-acting elements near promoter regions in rice”", "note": "Some of the results follow."}
{"target": "T1, OsSMF1 (Oryza sativa, UniProt Q6ZLB0 1-436)", "T1 sequence": "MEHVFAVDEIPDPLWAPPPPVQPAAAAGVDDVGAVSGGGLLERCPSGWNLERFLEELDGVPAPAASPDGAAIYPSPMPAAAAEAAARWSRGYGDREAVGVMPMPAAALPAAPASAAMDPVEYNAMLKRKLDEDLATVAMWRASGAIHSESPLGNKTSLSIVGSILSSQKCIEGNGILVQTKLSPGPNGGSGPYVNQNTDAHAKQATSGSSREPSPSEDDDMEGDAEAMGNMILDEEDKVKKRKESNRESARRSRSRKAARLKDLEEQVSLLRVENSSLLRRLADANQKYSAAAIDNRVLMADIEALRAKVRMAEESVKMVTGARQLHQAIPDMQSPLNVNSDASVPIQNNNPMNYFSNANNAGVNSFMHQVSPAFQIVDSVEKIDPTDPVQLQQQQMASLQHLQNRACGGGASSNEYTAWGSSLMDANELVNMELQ", "experiment": "protein-binding microarray (RPBM); PBS, 2% BSA, 51.3 ng/ul salmon testes DNA, 50 uM zinc acetate, 200 nM TF, 25 C, 1 h; high values mean tight binding", "settings": "protein: recombinant; tags: N-terminal polyhistidine and DsRed monomer fusion (pET32a); chain copies: 2; label: CyDye5-dUTP incorporated in the synthesized complementary strand; 3' TTTTT single-stranded linker to array surface; dsDNA, one strand shown", "method_in_brief": "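Per-feature fluorescence intensity (arbitrary units), read on an Axon 4000B scanner, is the binding signal. Transcription factors carrying an N-terminal polyhistidine tag and DsRed fusion were expressed in E. coli BL21-CodonPlus and purified on Ni–NTA. A custom Agilent array, made double-stranded by primer extension with Cy5-dUTP and blocked with 2% BSA, was incubated with 200 nM protein in PBS, 2% BSA, salmon testes DNA and 50 µM zinc acetate at 25 °C for 1 h and then washed.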"}
{"sequence": "GACGATACTAGTACAGCATACATGTCGTGGCGTTCAACTTCGGAGTCACCTAGTGCAG", "binding signal": "4620 fluorescence intensity (a.u.)"}
{"sequence": "CCCTTGTCCATCCGCCAACGCCACGTCACCTCCTCCGCTACGGAGTCACCTAGTGCAG", "binding signal": "52100 fluorescence intensity (a.u.)"}
{"sequence": "GACCGAAGTCGCATACAAATGGGTGTGAGATTGTGAGAGACGGAGTCACCTAGTGCAG", "binding signal": "4030 fluorescence intensity (a.u.)"}
{"sequence": "GTCAACTACACATCATCCCGCTGACGTCAACAGCAGACGACGGAGTCACCTAGTGCAG", "binding signal": "8720 fluorescence intensity (a.u.)"}
{"sequence": "GTAGTTTGAGAAGCAGTACGTGACTGTGAGAGAGCGACTACGGAGTCACCTAGTGCAG", "binding signal": "3340 fluorescence intensity (a.u.)"}
{"sequence": "ATGGTGTTATGTGAAGTGTGATGATGCAAGAATGAAGTTACGGAGTCACCTAGTGCAG", "binding signal": "4230 fluorescence intensity (a.u.)"}
{"sequence": "ATGTCCGGGCTTCTCACTGCCATGTGGGCCCCACTTGTCTCGGAGTCACCTAGTGCAG", "binding signal": "3180 fluorescence intensity (a.u.)"}
{"sequence": "TATCCCTCCCGCCGCCCGCGACGTCACCTCCTGGAACTCCCGGAGTCACCTAGTGCAG", "binding signal": "4460 fluorescence intensity (a.u.)"}
{"sequence": "TGTAACCCGACCACGCGTCAGTCCGGTGACATCCCGCTGCCGGAGTCACCTAGTGCAG", "binding signal": "6010 fluorescence intensity (a.u.)"}
{"sequence": "CCTTCGCCTCGGCGTGGAGGAGAGTGAGGACGGCCCACGCCGGAGTCACCTAGTGCAG", "binding signal": "23600 fluorescence intensity (a.u.)"}
{"sequence": "TAGAAGGGAGATTAAAATAAAATTTCTTGTACTGTGTGAGCGGAGTCACCTAGTGCAG", "binding signal": "5590 fluorescence intensity (a.u.)"}
{"sequence": "AATCATACATGCTTTATCTTAGGTGTCTATCTTGCTGTGGCGGAGTCACCTAGTGCAG", "binding signal": "4140 fluorescence intensity (a.u.)"}
{"sequence": "CCGTTGCGTCGTCATAGACAAAAGTCGGTTTTGCTTTTGGCGGAGTCACCTAGTGCAG", "binding signal": "4070 fluorescence intensity (a.u.)"}
{"sequence": "TCTCCCCAACCCCACTCACTCGCCGCGTCGGCGACCACCACGGAGTCACCTAGTGCAG", "binding signal": "4630 fluorescence intensity (a.u.)"}
{"sequence": "CGTTTGTTTTGCAGGTGGCGATCGCGCCGGATCCGGTGCTCGGAGTCACCTAGTGCAG", "binding signal": "33700 fluorescence intensity (a.u.)"}
{"sequence": "CCTACTGATCCCAAGCGTCACAATGGGGCAATGGGCCCTCCGGAGTCACCTAGTGCAG", "binding signal": "3920 fluorescence intensity (a.u.)"}
{"sequence": "TACTATAGTGAAAATATAGTTAAAGTGCCTGTGGATATGACGGAGTCACCTAGTGCAG", "binding signal": "3380 fluorescence intensity (a.u.)"}
{"sequence": "ATCTGGAACTAAAGATGGTAATGCCACGTGGAAGGGCTTCCGGAGTCACCTAGTGCAG", "binding signal": "22800 fluorescence intensity (a.u.)"}
{"sequence": "TTCACATAATATTTGACCATTCATCTTATTCAAAAGTTTACGGAGTCACCTAGTGCAG", "binding signal": "3800 fluorescence intensity (a.u.)"}
{"sequence": "GTAGCTACAATATTGGGGCGTACGATTAGGCCCATGTCATCGGAGTCACCTAGTGCAG", "binding signal": "4140 fluorescence intensity (a.u.)"}
{"sequence": "CAGGGGTACTATGTTGCAAAAGGGTCAGGACGTGGTAAAACGGAGTCACCTAGTGCAG", "binding signal": "3830 fluorescence intensity (a.u.)"}
{"sequence": "GCTCCAATCCTGTCCCTTCCTCATAGGGATTAGATGAACACGGAGTCACCTAGTGCAG", "binding signal": "19500 fluorescence intensity (a.u.)"}
{"sequence": "AGCTATTATATATGTCCACTCACTCGATTCCTTCGACCAACGGAGTCACCTAGTGCAG", "binding signal": "3440 fluorescence intensity (a.u.)"}
{"sequence": "ATCTGAAAACCGATTCAGACACGGATGACGTACCAAAATCCGGAGTCACCTAGTGCAG", "binding signal": "4360 fluorescence intensity (a.u.)"}
{"sequence": "CAGGTTTATCTCCACGTGGCAAGTGGCAACACGGCCCATCCGGAGTCACCTAGTGCAG", "binding signal": "13000 fluorescence intensity (a.u.)"}
{"sequence": "CTGCAGCAAACGACCAGCCATGTCACAGGTTGTGAAGGTCCGGAGTCACCTAGTGCAG", "binding signal": "4600 fluorescence intensity (a.u.)"}
{"sequence": "TAAATCGATCTCTTCGTCAGCAATAATGCGGACGCCATCACGGAGTCACCTAGTGCAG", "binding signal": "3890 fluorescence intensity (a.u.)"}
{"sequence": "CTCCCAGCAGCTGGTAGTGCATGTACGTTAGCACATTCCACGGAGTCACCTAGTGCAG", "binding signal": "3830 fluorescence intensity (a.u.)"}
{"sequence": "TGGCATCTCTATCACTAACACTCTTCTTCTTCCCTTGGCGCGGAGTCACCTAGTGCAG", "binding signal": "10300 fluorescence intensity (a.u.)"}
{"sequence": "CGCCGGCCGGGATGGTGCCGCACGCCCACGTCGGGCCCGGCGGAGTCACCTAGTGCAG", "binding signal": "3750 fluorescence intensity (a.u.)"}
{"sequence": "ACATGGACTGTGGTGTGGTACACACACGGTATGTCAGAGCCGGAGTCACCTAGTGCAG", "binding signal": "3220 fluorescence intensity (a.u.)"}
{"sequence": "ACCATTCCCAACAAGTCAGCAGCCACCACTGCAGCGCAGACGGAGTCACCTAGTGCAG", "binding signal": "4060 fluorescence intensity (a.u.)"}
{"sequence": "GGTGCCCTAATAAGTACGGTGGTTGAACATTACACAATTCCGGAGTCACCTAGTGCAG", "binding signal": "3770 fluorescence intensity (a.u.)"}
{"sequence": "CGGTCCACCCGTACTACGTGACGTATATGCCGAGCCGATTCGGAGTCACCTAGTGCAG", "binding signal": "8300 fluorescence intensity (a.u.)"}
{"sequence": "AAGCCAGCGAGCCTCCTCCACCACCGTCACCACCATGGGGCGGAGTCACCTAGTGCAG", "binding signal": "3300 fluorescence intensity (a.u.)"}
{"sequence": "TACTATTTTACACTTCATCTGATCATAAATATTTCACATACGGAGTCACCTAGTGCAG", "binding signal": "29800 fluorescence intensity (a.u.)"}
{"sequence": "AGAGAATTTTGGGCTTGGTAGTCATGGCCCAGCAAATTTTCGGAGTCACCTAGTGCAG", "binding signal": "3140 fluorescence intensity (a.u.)"}
{"sequence": "GGCGCGCGCGTCGAGGACGTGGTTCACGAAGGCGACGAACCGGAGTCACCTAGTGCAG", "binding signal": "3300 fluorescence intensity (a.u.)"}
{"sequence": "ATCAACAACTGTATTTAAAATGGGACGAATAGAGTAAATGCGGAGTCACCTAGTGCAG", "binding signal": "20200 fluorescence intensity (a.u.)"}
{"sequence": "CGGACTGACCGACTGCTTTAGGTGACACGGCATGTAGCTTCGGAGTCACCTAGTGCAG", "binding signal": "5520 fluorescence intensity (a.u.)"}
{"sequence": "ACTAATCATCGCCATGTCATAGCCACGTTAGTTGCCGCCTCGGAGTCACCTAGTGCAG", "binding signal": "17400 fluorescence intensity (a.u.)"}
{"sequence": "GCGCTTGCGCCTGACCGCCGCGTGACGACATGTTGTCACCCGGAGTCACCTAGTGCAG", "binding signal": "6800 fluorescence intensity (a.u.)"}
